The target of the assay is FLAG-tagged full-length Nwd1 (mouse) (UniProt A6H603). Nature of the assay: co-IP; HEK293 cells expressing FLAG-Nwd1 and/or the tagged partner; immunoprecipitation with an anti-FLAG antibody, immunoblotting with anti-EGFP, anti-HA or anti-FLAG antibodies.

By UniProt entry, the sequences of proteins in these tests, tags left out.
UniProt A6H603: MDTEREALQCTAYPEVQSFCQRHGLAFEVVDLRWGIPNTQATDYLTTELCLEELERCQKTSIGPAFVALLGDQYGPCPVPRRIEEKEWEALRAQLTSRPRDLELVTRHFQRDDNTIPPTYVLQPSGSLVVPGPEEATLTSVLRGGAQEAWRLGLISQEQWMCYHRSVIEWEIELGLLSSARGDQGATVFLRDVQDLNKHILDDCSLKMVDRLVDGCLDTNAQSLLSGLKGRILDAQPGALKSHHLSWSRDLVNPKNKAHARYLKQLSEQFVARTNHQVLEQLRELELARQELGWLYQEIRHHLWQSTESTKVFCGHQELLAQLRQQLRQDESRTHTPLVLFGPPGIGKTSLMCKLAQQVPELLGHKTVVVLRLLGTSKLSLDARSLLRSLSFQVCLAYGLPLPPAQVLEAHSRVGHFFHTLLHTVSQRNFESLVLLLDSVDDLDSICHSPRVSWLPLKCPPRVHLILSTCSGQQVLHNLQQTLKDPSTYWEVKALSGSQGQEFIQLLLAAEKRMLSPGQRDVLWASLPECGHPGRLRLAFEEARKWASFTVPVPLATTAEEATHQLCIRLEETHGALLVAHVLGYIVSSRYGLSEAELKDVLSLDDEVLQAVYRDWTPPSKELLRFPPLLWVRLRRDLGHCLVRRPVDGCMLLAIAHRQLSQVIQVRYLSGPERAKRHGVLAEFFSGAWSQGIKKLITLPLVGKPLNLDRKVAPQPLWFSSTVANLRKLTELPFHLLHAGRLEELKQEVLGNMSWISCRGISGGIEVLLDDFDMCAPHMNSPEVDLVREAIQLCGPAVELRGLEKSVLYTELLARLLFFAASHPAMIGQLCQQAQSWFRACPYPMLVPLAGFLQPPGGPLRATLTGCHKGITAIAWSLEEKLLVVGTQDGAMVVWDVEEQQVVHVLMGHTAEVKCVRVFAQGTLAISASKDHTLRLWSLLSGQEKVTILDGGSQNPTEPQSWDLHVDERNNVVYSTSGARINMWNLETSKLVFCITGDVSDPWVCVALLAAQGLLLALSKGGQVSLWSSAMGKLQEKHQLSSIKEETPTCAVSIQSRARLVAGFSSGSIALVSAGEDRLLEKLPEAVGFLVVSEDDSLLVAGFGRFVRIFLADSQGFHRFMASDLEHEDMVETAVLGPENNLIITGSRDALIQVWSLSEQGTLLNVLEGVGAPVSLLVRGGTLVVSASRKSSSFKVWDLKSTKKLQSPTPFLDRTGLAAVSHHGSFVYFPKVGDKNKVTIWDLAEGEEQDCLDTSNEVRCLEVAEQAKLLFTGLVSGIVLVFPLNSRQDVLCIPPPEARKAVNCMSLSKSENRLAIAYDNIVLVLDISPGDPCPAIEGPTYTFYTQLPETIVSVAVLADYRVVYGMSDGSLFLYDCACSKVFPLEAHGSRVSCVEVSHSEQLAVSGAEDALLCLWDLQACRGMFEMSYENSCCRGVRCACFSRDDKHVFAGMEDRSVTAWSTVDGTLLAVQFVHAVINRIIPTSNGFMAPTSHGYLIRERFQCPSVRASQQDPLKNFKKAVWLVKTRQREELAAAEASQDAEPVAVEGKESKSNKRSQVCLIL

These are yes or no findings as the source states them, for the method shown. In cells and extracts the contact can be indirect. Some entries that bind do so weakly or less than the wild type. Where a sequence is shown, tags or fusion partners need not be part of it.

B1: Fgams-EGFP (enzyme, UniProt Q5SUR0 1-1337)
chain: MAPVLHFYVRPSGHEGAASGRVFRRLQEKLPTLQSVETELCYNVHWAAETLPWAEEMKKLMWLFGCPLVRDDVAQEPWLVPGSNDLLLEVGPRLNFSTPASTNIVSVCQAAGLRAVDRVETTRRYRLSFTDHPTAEMEAISLAALHDRMTEQHYPDPIQSFSPQSIPAPLKGSIDILAEGRPALEKANQELGLALDSWDLDFYTKRFQELQRNPSTVEVFDLAQSNSEHSRHWFFKGQLHVDGKKLAHSLFESIMSTQASSNPNNVLKFCDNSSAIQGKKVKFLRPEDSTRPSCFQQQQGLRHVVFTAETHNFPTGVAPFSGATTGTGGRIRDVQCTGRGAHVVAGTAGYCFGNLHIPDYNLPWEDPSFQYPGNFARPLEVAIEASNGASDYGNKFGEPVLAGFARSLGLQLPDGQRREWIKPIMFSGGIGSMEAKHVGKKPPEPGMEVVKVGGPVYRIGVGGGAASSVQVQGDNTSDLDFGAVQRGDPEMEQKMNRVIRACVEAPGGNPICSLHDQGAGGNGNVLKELSDPEGAIIYTSRFQLGDPTLNALEIWGAEYQESNALLLRPSDRDFLSRASARERCPACFVGTITGDKRIVLVDDRECLVGKTGQGDAPLTPPTPVDLDLDWVLGKMPQKEFFLQRKPPVLQPLALPPELSVRQALNRVLRLPAVASKRYLTNKVDRSVGGLVAQQQCVGPLQTPLADVAVVALSHQECIGAATALGEQPVKSLLDPKAAARLAVSEALTNLVFALVTDLRDVKCSGNWMWAAKLPGEGAALADACEAMVAVMAALGVAVDGGKDSLSMAARVGTETVQAPGSLVISAYAVCPDITATVTPDLKHPGGKGHLLYVPLSPGQHRLGGTALAQCFSQLGEHPPDLDLPENLVRAFHITQGLLKECRLCSGHDVSDGGLVTCLLEMAFAGNCGIEVDVPAPGIHALPVLFAEEPGLVLEVQEADVAGVRQRYESAGLRCLELGHTGEAGPQAMARISVNKAVVVEEPVGELRALWEETSFQLDLLQAEPRCVIEEKQGLKERTGPSYYLPPTFPVASVPCKPGGPVPRVAILREEGSNGDREMADAFHLAGFEVWDVTMQDLCSGAIRLDTFRGVAFVGGFSYADVLGSAKGWAAAVTFNPQAREELGRFRRRPDTFSLGVCNGCQLLALLGWVGSDPSEEQAEPGQDSQPTQPGLLLRHNLSGRFESRWATVRVEPGPALMLRGMEGSVLPVWSAHGEGYMAFSSPELQAKIEAKGLVPLHWADDDGNPTEQYPLNPNGSPGGIAGICSQDGRHLALMPHPERAVRLWQWAWRPSPFDVLPTSPWLQLFINARNWTQEDSC
Regarding B1, the binding result was “binds”.

B2: EGFP-tagged full-length Paics (enzyme, UniProt Q9DCL9 1-425)
chain: MATAVVVNIGKKLYEGKTKEVYELLDTPGRVLLQSKDQITAGNAARKNHLEGKAAISNKITSCIFQLLQEAGIKTAFTKKCGETAFIAPQCEMIPIEWVCRRIATGSFLKRNPGVQEGYKFYPPKVEMFFKDDANNDPQWSEEQLIAAKFCFAGLVIGQTEVDIMSHATQAIFEILEKSWLPQDCTLVDMKIEFGVDVTTKEIVLADVIDNDSWRLWPSGDRSQQKDKQSYRDLKEVTPEGLQMVKKNFEWVADRVELLLKSDSQCRVVVLMGSTSDLGHCEKIKKACGNFGIPCELRVTSAHKGPDETLRIKAEYEGDGIPTVFVSVAGRSNGLGPVLSGNTAYPVISCPPITPDWGAQDVWSSLRLPSGIGCSTILSPEGSAQFAAQIFGLNNHLVWAKLRASILNTWISLKQADKKVRQCNL
On to B2, for which the binding entry is recorded as “binds”.

Values taken from PMC7186558.
